Results deposited as PubChem BioAssay AID504764 (Drosophila RNAi Screening Center, 2011)
In all, the deposit lists about 22,000 reagents; this is an unselected part of those with a known target gene and a result. Of all reagents, 403 (1.9%) were called active. 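Unnormalised raw counts per well; ratio z-scores behind the hit calls and whether each hit raises or lowers signal are not deposited.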 A plus sign joins genes that one reagent is predicted to hit. Not stated in the record: the amount of reagent.

Aim: 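Genes whose knock-down alters Notch-dependent transcription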 (primary screen)
Cell system: Drosophila Kc167 cells
Reagents: long dsRNA against Drosophila genes
Timing: about 5 days (4 days dsRNA, then 24 h after transfection)
Treatment: transfection of constitutively active membrane-tethered Notch lacking the extracellular domain, read 24 h later
Measured: 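Light from a Notch-responsive E(spl)m3 luciferase reporter under active Notch, with control-promoter and no-Notch reporter wells to normalise; raw counts from paired wells a and b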
Reading the numbers: induced reporter light, run 1, well a and induced reporter light, run 1, well b: higher = more light from the Notch target reporter with active Notch; control promoter light, run 1, well a and control promoter light, run 1, well b: higher = more light from the viral control promoter (cell number, transfection, viability); uninduced reporter light, run 1, well a: higher = more light from the Notch target reporter without active Notch
Call rule: 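Wells with low control signal or poorly matching duplicates excluded; duplicates averaged; per source plate, z beyond ±2 for induced/control log2 ratio or beyond ±1.8 for induced/uninduced marks a hit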
Meaning of the calls: active = modifier hit (raised or lowered Notch signal); inactive = not a hit

Knock-down of CG13116 [DRSC02214] resulted in: induced reporter light, run 1, well a = 1.67e5; induced reporter light, run 1, well b = 1.78e5; control promoter light, run 1, well a = 85650; control promoter light, run 1, well b = 1.12e5; uninduced reporter light, run 1, well a = 22060; inactive.
CG13116 [DRSC21945] gave inactive.
Silencing of CG34334 [DRSC20643] resulted in: induced reporter light, run 1, well a = 1.00e5; induced reporter light, run 1, well b = 1.07e5; control promoter light, run 1, well a = 1.02e5; control promoter light, run 1, well b = 1.06e5; uninduced reporter light, run 1, well a = 10275; inactive.
CG12672 [DRSC19482] scored induced reporter light, run 1, well a = 53675; induced reporter light, run 1, well b = 49615; control promoter light, run 1, well a = 57270; control promoter light, run 1, well b = 57070; uninduced reporter light, run 1, well a = 8178; inactive.
With knock-down of CG3061 [DRSC15460], the screen gave induced reporter light, run 1, well a = 2.11e5; induced reporter light, run 1, well b = 2.30e5; control promoter light, run 1, well a = 2.17e5; control promoter light, run 1, well b = 2.33e5; uninduced reporter light, run 1, well a = 15478; inactive.
With knock-down of CheA86a (Chemosensory protein A 86a) [DRSC12839], the record shows induced reporter light, run 1, well a = 2.03e5; induced reporter light, run 1, well b = 1.25e5; control promoter light, run 1, well a = 2.05e5; control promoter light, run 1, well b = 1.45e5; uninduced reporter light, run 1, well a = 10675; inactive.
Knock-down of CG2224 [DRSC15429] gave: induced reporter light, run 1, well a = 91645; induced reporter light, run 1, well b = 76620; control promoter light, run 1, well a = 1.63e5; control promoter light, run 1, well b = 1.28e5; uninduced reporter light, run 1, well a = 7992; inactive.
Silencing of CG34265 [DRSC08030] gave: induced reporter light, run 1, well a = 2.38e5; induced reporter light, run 1, well b = 2.28e5; control promoter light, run 1, well a = 2.55e5; control promoter light, run 1, well b = 2.75e5; uninduced reporter light, run 1, well a = 16250; inactive.

3 consecutive reagents from above, quoted:
CG13116 [DRSC21945]: Call = inactive
CG34334 [DRSC20643]: induced reporter light, run 1, well a = 1.00e5; induced reporter light, run 1, well b = 1.07e5; control promoter light, run 1, well a = 1.02e5; control promoter light, run 1, well b = 1.06e5; uninduced reporter light, run 1, well a = 10275; Call = inactive
CG12672 [DRSC19482]: induced reporter light, run 1, well a = 53675; induced reporter light, run 1, well b = 49615; control promoter light, run 1, well a = 57270; control promoter light, run 1, well b = 57070; uninduced reporter light, run 1, well a = 8178; Call = inactive

The results go on:
Knock-down of CG18542 + CG32939 [DRSC15342] gave: induced reporter light, run 1, well a = 1.56e5; induced reporter light, run 1, well b = 1.58e5; control promoter light, run 1, well a = 87490; control promoter light, run 1, well b = 91140; uninduced reporter light, run 1, well a = 12215; inactive.
Tm1 (Tropomyosin 1) [DRSC13082] scored induced reporter light, run 1, well a = 1.48e5; induced reporter light, run 1, well b = 1.12e5; control promoter light, run 1, well a = 1.64e5; control promoter light, run 1, well b = 1.76e5; uninduced reporter light, run 1, well a = 10988; inactive.
Tm1 (Tropomyosin 1) [DRSC13083] showed induced reporter light, run 1, well a = 1.39e5; induced reporter light, run 1, well b = 1.26e5; control promoter light, run 1, well a = 1.63e5; control promoter light, run 1, well b = 2.01e5; uninduced reporter light, run 1, well a = 10360; inactive.
After knock-down of Tm1 (Tropomyosin 1) [DRSC16886], the screen gave induced reporter light, run 1, well a = 1.03e5; induced reporter light, run 1, well b = 1.06e5; control promoter light, run 1, well a = 89160; control promoter light, run 1, well b = 85745; uninduced reporter light, run 1, well a = 9445; inactive.
For GC2 [DRSC14476], the entry reads induced reporter light, run 1, well a = 92600; induced reporter light, run 1, well b = 74340; control promoter light, run 1, well a = 85200; control promoter light, run 1, well b = 54085; uninduced reporter light, run 1, well a = 5085; inactive.
With knock-down of AP-2sigma (Adaptor Protein complex 2, sigma subunit) [DRSC15957], the record shows induced reporter light, run 1, well a = 1.39e5; induced reporter light, run 1, well b = 1.25e5; control promoter light, run 1, well a = 1.60e5; control promoter light, run 1, well b = 1.55e5; uninduced reporter light, run 1, well a = 7888; inactive.
Silencing of CG15464 (retired record) [DRSC18047] resulted in: induced reporter light, run 1, well a = 1.28e5; induced reporter light, run 1, well b = 1.18e5; control promoter light, run 1, well a = 2.55e5; control promoter light, run 1, well b = 2.46e5; uninduced reporter light, run 1, well a = 9425; inactive.
After knock-down of CycY (Cyclin Y) [DRSC02420] the results were induced reporter light, run 1, well a = 2.20e5; induced reporter light, run 1, well b = 2.10e5; control promoter light, run 1, well a = 1.67e5; control promoter light, run 1, well b = 1.67e5; uninduced reporter light, run 1, well a = 17010; inactive.
After knock-down of CG43367 [DRSC08299], the record shows induced reporter light, run 1, well a = 94710; induced reporter light, run 1, well b = 1.16e5; control promoter light, run 1, well a = 2.18e5; control promoter light, run 1, well b = 1.45e5; uninduced reporter light, run 1, well a = 8280; inactive.
With knock-down of CG43367 [DRSC08301], the record shows induced reporter light, run 1, well a = 1.71e5; induced reporter light, run 1, well b = 1.26e5; control promoter light, run 1, well a = 2.20e5; control promoter light, run 1, well b = 1.66e5; uninduced reporter light, run 1, well a = 11325; inactive.
For CG43367 [DRSC08309], the values are induced reporter light, run 1, well a = 1.81e5; induced reporter light, run 1, well b = 1.23e5; control promoter light, run 1, well a = 2.21e5; control promoter light, run 1, well b = 1.72e5; uninduced reporter light, run 1, well a = 10320; inactive.
